Assay results taken from patent US12351591B2, “KRas inhibitors” (ELI LILLY AND COMPANY, priority 2022, dated 2025).
Some of these results come from one statement about several compounds together.

Protein sequences, listed by entry. Tags and fused reporters are not part of them. Residues count along the entry.
UniProt P01116, 1-188 isoform P01116-2 G12D: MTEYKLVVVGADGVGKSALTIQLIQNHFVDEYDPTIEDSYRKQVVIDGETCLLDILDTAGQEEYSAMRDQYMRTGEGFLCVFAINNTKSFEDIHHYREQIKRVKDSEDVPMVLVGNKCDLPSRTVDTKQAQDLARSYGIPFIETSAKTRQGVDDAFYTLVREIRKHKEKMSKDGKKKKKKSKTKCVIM

What follows are compounds tested against T1, KRas G12D (Homo sapiens, UniProt P01116, G12D) (assay: PANC-1 Cellular Active RAS GTPase ELISA (KRas G12D Mutation)). Conditions: PANC-1 cells, 2 hours; read-out: relative IC50, inhibition of constitutive RAS GTPase activity (KRas G12D mutant).
T1 construct: host or cells: PANC-1
Type: cell-based

| Structure (SMILES) | IC50 [nM] |
| --- | --- |
| CN1CCC[C@H]1COc1nc(N2C3CCC2CN(CCCO)C3)c2c3c(c(-c4c(F)ccc5sc(N)c(C#N)c45)c(F)c2n1)COC3 (single isomer, unassigned) [Example 138] | < 100 |
| N#Cc1c(N)sc2ccc(F)c(-c3c4c(c5c(N6C7CCC6CN(C[C@@H](O)[C@H](O)CO)C7)nc(OC[C@@]67CCCN6C[C@H](F)C7)nc5c3F)COC4)c12 [Example 112, 2-Amino-5-fluoro-4-[5-fluoro-3-[[(2R,8S)-2-fluoro-1,2,3,5,6,7-hexahydropyrrolizin-8-yl]methoxy]-1-[3-[(2R,3R)-2,3,4-trihydroxybutyl]-3,8-diazabicyclo[3.2.1]octan-8-yl]-7,9-dihydrofuro[3,4-f]quinazolin-6-yl]benzothiophene-3-carbonitrile] | < 100 |
| C[C@@H](O)CN1CC2CCC(C1)N2c1nc(OC[C@@]23CCCN2C[C@H](F)C3)nc2c(F)c(-c3ccc(F)c4oc(N)c(C#N)c34)c3c(c12)COC3 [Example 174, 2-Amino-7-fluoro-4-[5-fluoro-3-[[(2R,8S)-2-fluoro-1,2,3,5,6,7-hexahydropyrrolizin-8-yl]methoxy]-1-[3-[(2R)-2-hydroxypropyl]-3,8-diazabicyclo[3.2.1]octan-8-yl]-7,9-dihydrofuro[3,4-f]quinazolin-6-yl]benzofuran-3-carbonitrile] | < 100 |
| C[C@@H](O)CN1CC2CCC(C1)N2c1nc(OC[C@@H]2CCCN2C)nc2c(F)c(-c3c(F)ccc4sc(N)c(C#N)c34)c3c(c12)COC3 (single isomer, unassigned) [Example 177] | < 100 |
| C[C@@H](O)CN1CC2CCC(C1)N2c1nc(OC[C@@H]2[C@@H](O)CCN2C)nc2c(F)c(-c3c(F)ccc4sc(N)c(C#N)c34)c3c(c12)COC3 (single isomer, unassigned) [Example 185] | < 100 |
| N#Cc1c(N)sc2c(F)cnc(-c3c4c(c5c(N6C7CCC6CN(CCO)C7)nc(OC[C@@]67CCCN6C[C@H](F)C7)nc5c3F)COC4)c12 [Example 125, 2-Amino-7-fluoro-4-[5-fluoro-3-[[(2R,8S)-2-fluoro-1,2,3,5,6,7-hexahydropyrrolizin-8-yl]methoxy]-1-[3-(2-hydroxyethyl)-3,8-diazabicyclo[3.2.1]octan-8-yl]-7,9-dihydrofuro[3,4-f]quinazolin-6-yl]thieno[3,2-c]pyridine-3-carbonitrile] | < 100 |
| CN(C)CC1(COc2nc(N3C4CCC3CN(CCCO)C4)c3c4c(c(-c5ncc(F)c6sc(N)c(C#N)c56)c(F)c3n2)COC4)CC1 [Example 334, 2-Amino-4-[3-[[1-[(dimethylamino)methyl]cyclopropyl]methoxy]-5-fluoro-1-[3-(3-hydroxypropyl)-3,8-diazabicyclo[3.2.1]octan-8-yl]-7,9-dihydrofuro[3,4-f]quinazolin-6-yl]-7-fluoro-thieno[3,2-c]pyridine-3-carbonitrile] | < 100 |
| CN1CCC[C@H]1COc1nc(N2C3CCC2CN(CC2COC2)C3)c2c3c(c(-c4c(F)ccc5sc(N)c(C#N)c45)c(F)c2n1)COC3 (single isomer, unassigned) [Example 149] | < 100 |
| C[C@@H](O)CN1CC2CCC(C1)N2c1nc(OC[C@@H]2CCN2C)nc2c(F)c(-c3c(F)ccc4sc(N)c(C#N)c34)c3c(c12)COC3 (single isomer, unassigned) [Example 179] | < 100 |
| C[C@@H](O)CN1CC2CCC(C1)N2c1nc(OC[C@@]23CCCN2C[C@@H](F)C3)nc2c(F)c(-c3ncc(F)c4sc(N)c(C#N)c34)c3c(c12)COC3 (racemic) [Example 249, 2-Amino-7-fluoro-4-[5-fluoro-3-[[(2SR,8SR)-2-fluoro-1,2,3,5,6,7-hexahydropyrrolizin-8-yl]methoxy]-1-[3-[(2R)-2-hydroxypropyl]-3,8-diazabicyclo[3.2.1]octan-8-yl]-7,9-dihydrofuro[3,4-f]quinazolin-6-yl]thieno[3,2-c]pyridine-3-carbonitrile] | < 100 |
| CN1CC2CC(C1)N2c1nc(OC[C@@H]2C[C@@H](F)CN2C)nc2c(F)c(-c3ncc(F)c4sc(N)c(C#N)c34)c3c(c12)COC3 [Example 341, 2-Amino-7-fluoro-4-[5-fluoro-3-[[(2S,4R)-4-fluoro-1-methyl-pyrrolidin-2-yl]methoxy]-1-(3-methyl-3,6-diazabicyclo[3.1.1]heptan-6-yl)-7,9-dihydrofuro[3,4-f]quinazolin-6-yl]thieno[3,2-c]pyridine-3-carbonitrile] | < 100 |
| C[C@@H](O)CN1CC2CCC(C1)N2c1nc(OC[C@@]23CCCN2C[C@H](F)C3)nc2c(F)c(-c3cccc4oc(N)c(C#N)c34)c3c(c12)COC3 [Example 176, 2-Amino-4-[5-fluoro-3-[[(2R,8S)-2-fluoro-1,2,3,5,6,7-hexahydropyrrolizin-8-yl]methoxy]-1-[3-[(2R)-2-hydroxypropyl]-3,8-diazabicyclo[3.2.1]octan-8-yl]-7,9-dihydrofuro[3,4-f]quinazolin-6-yl]benzofuran-3-carbonitrile] | < 100 |
| N#Cc1c(N)sc2c(F)cnc(-c3c4c(c5c(N6C7CC6CN(CC6COC6)C7)nc(OC[C@@]67CCCN6C[C@H](F)C7)nc5c3F)COC4)c12 [Example 345, 2-Amino-7-fluoro-4-[5-fluoro-3-[[(2R,8S)-2-fluoro-1,2,3,5,6,7-hexahydropyrrolizin-8-yl]methoxy]-1-[3-(oxetan-3-ylmethyl)-3,6-diazabicyclo[3.1.1]heptan-6-yl]-7,9-dihydrofuro[3,4-f]quinazolin-6-yl]thieno[3,2-c]pyridine-3-carbonitrile] | < 100 |
| CN(C)C1CN(c2nc(N3C4CCC3CN(CCCO)C4)c3c4c(c(-c5c(F)ccc6sc(N)c(C#N)c56)c(F)c3n2)COC4)C1 (single isomer, unassigned) [Example 139, 2-Amino-4-[3-[3-(dimethylamino)azetidin-1-yl]-5-fluoro-1-[3-(3-hydroxypropyl)-3,8-diazabicyclo[3.2.1]octan-8-yl]-7,9-dihydrofuro[3,4-f]quinazolin-6-yl]-5-fluoro-benzothiophene-3-carbonitrile] | < 100 |
| CN1CC2CC(C1)N2c1nc(OC[C@@H]2C[C@@H](F)CN2C)nc2c(F)c(-c3c(F)ccc4sc(N)c(C#N)c34)c3c(c12)COC3 (single isomer, unassigned) [Example 153] | < 100 |
| N#Cc1c(N)sc2ccc(F)c(-c3c4c(c5c(N6C7CCC6CN(CCCO)C7)nc(OCCN6CC[C@H](F)C6)nc5c3F)COC4)c12 (single isomer, unassigned) [Example 145] | < 100 |
| CO[C@H]1CCN(CCOc2nc(N3C4CCC3CN(CCCO)C4)c3c4c(c(-c5c(F)ccc6sc(N)c(C#N)c56)c(F)c3n2)COC4)C1 (single isomer, unassigned) [Example 147] | < 100 |
| COc1nc(OC[C@@]23CCCN2C[C@H](F)C3)nc2c(F)c(-c3c(F)ccc4sc(N)c(C#N)c34)c3c(c12)COC3 [Example 94, 2-Amino-5-fluoro-4-[5-fluoro-3-[[(2R,8S)-2-fluoro-1,2,3,5,6,7-hexahydropyrrolizin-8-yl]methoxy]-1-methoxy-7,9-dihydrofuro[3,4-f]quinazolin-6-yl]benzothiophene-3-carbonitrile] | < 100 |
| CO[C@H](C)CN1CC2CCC(C1)N2c1nc(OC[C@@]23CCCN2C[C@H](F)C3)nc2c(F)c(-c3nccc4sc(N)c(C#N)c34)c3c(c12)COC3 [Example 120, 2-Amino-4-[5-fluoro-3-[[(2R,8S)-2-fluoro-1,2,3,5,6,7-hexahydropyrrolizin-8-yl]methoxy]-1-[3-[(2R)-2-methoxypropyl]-3,8-diazabicyclo[3.2.1]octan-8-yl]-7,9-dihydrofuro[3,4-f]quinazolin-6-yl]thieno[3,2-c]pyridine-3-carbonitrile] | < 100 |
| N#Cc1c(N)sc2ccc(F)c(-c3c4c(c5c(N6C7CNCC6C7)ncnc5c3F)COC4)c12 (single isomer, unassigned; isomer 2) [Example 9, 2-Amino-4-[1-(3,6-diazabicyclo[3.1.1]heptan-6-yl)-5-fluoro-7,9-dihydrofuro[3,4-f]quinazolin-6-yl]-5-fluoro-benzothiophene-3-carbonitrile, Isomer 2] | < 100 |
| N#Cc1c(N)sc2c(F)ccc(-c3c4c(c5c(N6C7CCC6CN(C[C@H]6CCO6)C7)nc(OC[C@@]67CCCN6C[C@H](F)C7)nc5c3F)COC4)c12 (single isomer, unassigned) [Example 102] | < 100 |
| C[C@@H](O)CN1CC2CCC(C1)N2c1nc(OC[C@@H]2C[C@@H](F)CN2C)nc2c(F)c(-c3c(F)ccc4oc(N)c(C#N)c34)c3c(c12)COC3 [Example 355, 2-Amino-5-fluoro-4-[5-fluoro-3-[[(2S,4R)-4-fluoro-1-methyl-pyrrolidin-2-yl]methoxy]-1-[3-[(2R)-2-hydroxypropyl]-3,8-diazabicyclo[3.2.1]octan-8-yl]-7,9-dihydrofuro[3,4-f]quinazolin-6-yl]benzofuran-3-carbonitrile] | < 100 |
| N#Cc1c(N)sc2c(F)ccc(-c3c4c(c5c(N6C7CCC6CN(CCCO)C7)nc(OC[C@@]67CCCN6C[C@H](F)C7)nc5c3F)COC4)c12 [Example 100, 2-Amino-7-fluoro-4-[5-fluoro-3-[[(2R,8S)-2-fluoro-1,2,3,5,6,7-hexahydropyrrolizin-8-yl]methoxy]-1-[3-(3-hydroxypropyl)-3,8-diazabicyclo[3.2.1]octan-8-yl]-7,9-dihydrofuro[3,4-f]quinazolin-6-yl]benzothiophene-3-carbonitrile] | < 100 |
| N#Cc1c(N)sc2c(F)ccc(-c3c4c(c5ccc(OCC6COC6)nc5c3Cl)COC4)c12 (single isomer, unassigned; isomer 1) [Example 36, 2-Amino-4-[5-chloro-7-(oxetan-3-ylmethoxy)-1,3-dihydrofuro[3,4-f]quinolin-4-yl]-7-fluoro-benzothiophene-3-carbonitrile, Isomer 1] | < 100 |
| N#Cc1c(N)sc2c(F)cnc(-c3c4c(c5c(N6C7CCC6CN(CC(CO)CO)C7)nc(OC[C@@]67CCCN6C[C@H](F)C7)nc5c3F)COC4)c12 [Example 228, 2-Amino-7-fluoro-4-[5-fluoro-3-[[(2R,8S)-2-fluoro-1,2,3,5,6,7-hexahydropyrrolizin-8-yl]methoxy]-1-[3-[3-hydroxy-2-(hydroxymethyl)propyl]-3,8-diazabicyclo[3.2.1]octan-8-yl]-7,9-dihydrofuro[3,4-f]quinazolin-6-yl]thieno[3,2-c]pyridine-3-carbonitrile] | < 100 |
